Results are given in words; binding and its absence hold for the method and conditions named. Some results given as binding are weak or reduced against the parent protein; the word gives no strength.
Target: human CD79b fused with an Fc domain at the C-terminus (printed at paragraph 314 as Human CD79a fused with an Fc domain) (human) (UniProt P40259)
Assay: binding to huCD79b, method not named at this place (data not shown)

By UniProt entry, the sequences of proteins in these tests, tags left out. Where a name states a change or a piece, a line headed by the entry shows the natural chain unless it says otherwise.
UniProt P40259: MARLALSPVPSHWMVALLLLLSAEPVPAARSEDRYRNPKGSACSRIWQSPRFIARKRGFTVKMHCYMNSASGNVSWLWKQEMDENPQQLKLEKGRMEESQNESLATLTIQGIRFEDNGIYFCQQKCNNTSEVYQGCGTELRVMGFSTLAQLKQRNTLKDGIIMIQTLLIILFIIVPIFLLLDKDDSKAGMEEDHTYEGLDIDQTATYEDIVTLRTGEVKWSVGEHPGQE

B1: CD79b.A7.v14b (antibody, V domains shown)
VH: EVQLVQSGAEVKKPGASVKVSCKASGYTFTTYYMNWVRQAPGQGLEWIGMIDPSDSETHYNQKFQGRATLTVDTSTSTAYLELSSLRSEDTAVYYCSRSLAFWGQGTLVTVSS
VL: DIVMTQTPLSLPVTPGQPASISCKSSQSLLDSDGKTYLNWLLQKPGQSPQSLIYLVSKLDSGVPDRFSGSGSGTDFTLKISRVEAEDVGVYYCWQGTHFPQTFGQGTKVEIK
  binding: binds

From patent US20160159906A1
